The target in assay [1] is T1, purified region 3-deleted (Δ3) CARM1 (UniProt Q86X55).
T1 sequence: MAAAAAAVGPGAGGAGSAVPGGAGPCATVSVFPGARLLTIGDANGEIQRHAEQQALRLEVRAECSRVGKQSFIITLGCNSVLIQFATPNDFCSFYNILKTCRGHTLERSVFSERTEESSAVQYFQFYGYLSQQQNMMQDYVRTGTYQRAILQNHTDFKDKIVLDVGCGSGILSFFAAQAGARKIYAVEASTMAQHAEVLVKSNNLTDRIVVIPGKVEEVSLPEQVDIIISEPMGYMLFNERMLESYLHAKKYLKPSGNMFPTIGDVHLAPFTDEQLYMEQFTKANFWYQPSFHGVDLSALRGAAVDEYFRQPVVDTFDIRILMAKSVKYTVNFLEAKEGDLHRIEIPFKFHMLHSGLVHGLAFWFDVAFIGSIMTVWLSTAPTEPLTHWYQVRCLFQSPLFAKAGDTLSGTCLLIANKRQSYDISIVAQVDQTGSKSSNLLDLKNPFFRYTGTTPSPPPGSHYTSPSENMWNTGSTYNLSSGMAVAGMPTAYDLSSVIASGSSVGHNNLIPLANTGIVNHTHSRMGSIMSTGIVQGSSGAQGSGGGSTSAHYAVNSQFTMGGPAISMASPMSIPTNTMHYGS
The experiment in a line: pull-down; purified full length (FL) or region 3-deleted (Δ3) CARM1 mixed with GATAD2A or MED12 C-terminus (Supplementary Figure S1L); details not shown; both purified.

By UniProt entry, the sequences of proteins in these tests, tags left out. Residues count along the entry.
UniProt Q93074, residues 1616-2177: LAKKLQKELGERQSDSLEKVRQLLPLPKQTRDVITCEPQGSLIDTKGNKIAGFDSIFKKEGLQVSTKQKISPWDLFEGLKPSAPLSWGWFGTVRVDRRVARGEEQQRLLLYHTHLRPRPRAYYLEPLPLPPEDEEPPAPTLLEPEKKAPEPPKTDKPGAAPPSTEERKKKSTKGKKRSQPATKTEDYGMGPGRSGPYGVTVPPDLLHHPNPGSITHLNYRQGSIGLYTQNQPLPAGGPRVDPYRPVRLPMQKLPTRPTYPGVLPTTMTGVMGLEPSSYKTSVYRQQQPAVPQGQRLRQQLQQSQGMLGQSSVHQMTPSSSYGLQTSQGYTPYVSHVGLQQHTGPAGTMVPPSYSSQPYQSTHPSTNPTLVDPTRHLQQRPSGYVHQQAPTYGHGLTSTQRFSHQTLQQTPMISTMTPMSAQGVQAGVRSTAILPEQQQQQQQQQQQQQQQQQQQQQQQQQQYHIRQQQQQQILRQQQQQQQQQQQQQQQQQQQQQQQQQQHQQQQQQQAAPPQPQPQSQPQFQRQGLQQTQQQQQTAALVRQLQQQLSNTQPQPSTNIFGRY

The next assay addresses T2, GST-tagged CARM1 (UniProt Q86X55).
T2 sequence: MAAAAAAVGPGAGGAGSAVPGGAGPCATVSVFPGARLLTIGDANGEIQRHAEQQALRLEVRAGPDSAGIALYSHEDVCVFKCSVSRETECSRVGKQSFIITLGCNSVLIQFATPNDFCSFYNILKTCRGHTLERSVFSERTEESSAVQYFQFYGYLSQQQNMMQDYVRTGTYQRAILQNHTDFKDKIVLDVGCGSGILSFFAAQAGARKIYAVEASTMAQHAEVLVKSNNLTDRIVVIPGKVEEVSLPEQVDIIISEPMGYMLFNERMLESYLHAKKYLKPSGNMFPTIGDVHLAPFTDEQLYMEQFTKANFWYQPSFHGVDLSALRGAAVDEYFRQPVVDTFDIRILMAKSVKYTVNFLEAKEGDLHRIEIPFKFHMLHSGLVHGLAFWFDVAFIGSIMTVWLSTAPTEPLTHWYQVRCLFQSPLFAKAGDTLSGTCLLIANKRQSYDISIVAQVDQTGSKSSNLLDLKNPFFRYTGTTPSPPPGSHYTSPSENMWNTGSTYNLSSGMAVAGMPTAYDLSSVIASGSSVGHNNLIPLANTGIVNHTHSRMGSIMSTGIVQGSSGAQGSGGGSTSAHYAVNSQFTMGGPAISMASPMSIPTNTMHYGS
Described as above.

No constants are given. Whether binding was seen depends on the method and setting. Some results given as binding are weak or reduced against the parent protein; the word gives no strength. For some assays here: Where a sequence is shown, tags or fusion partners need not be part of it.

In the case of “MED12 C-terminus (aa 1616–2177) (from UniProt Q93074 1616-2177) (domain or fragment)”, the binding result (in assay [1]; with GST-tagged CARM1) was “binds” each time.

Values taken from publication PMC11229315.
